Measured values published in article PMC5838168, “Effect of human very low-density lipoproteins on cardiotrophin-like cytokine factor 1 (CLCF1) activity” (Scientific Reports, 2018).
Numbering of substitutions follows the chain as printed. Results are given in words; binding and its absence hold for the method and conditions named. For some of these results: Binding seen in cells or lysates may run through a third protein. Some binding calls cover weakened binding; strength is not graded here. Blank lines part the entries; values can stand above or below the binder they belong to.

Amino acid sequences for entries named in this document (tags omitted). A change or cut given only in a name is not applied to a line headed by its entry. Residues count along the entry.
UniProt P02649, residues 19-317: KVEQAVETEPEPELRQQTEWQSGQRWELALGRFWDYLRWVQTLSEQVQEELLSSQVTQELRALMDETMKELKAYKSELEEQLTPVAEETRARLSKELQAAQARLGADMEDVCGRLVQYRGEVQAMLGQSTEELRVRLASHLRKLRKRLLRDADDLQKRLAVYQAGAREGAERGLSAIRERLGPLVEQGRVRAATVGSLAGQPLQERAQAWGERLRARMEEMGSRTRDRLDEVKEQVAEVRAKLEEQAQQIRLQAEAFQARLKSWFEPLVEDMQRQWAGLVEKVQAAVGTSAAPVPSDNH
UniProt O88507: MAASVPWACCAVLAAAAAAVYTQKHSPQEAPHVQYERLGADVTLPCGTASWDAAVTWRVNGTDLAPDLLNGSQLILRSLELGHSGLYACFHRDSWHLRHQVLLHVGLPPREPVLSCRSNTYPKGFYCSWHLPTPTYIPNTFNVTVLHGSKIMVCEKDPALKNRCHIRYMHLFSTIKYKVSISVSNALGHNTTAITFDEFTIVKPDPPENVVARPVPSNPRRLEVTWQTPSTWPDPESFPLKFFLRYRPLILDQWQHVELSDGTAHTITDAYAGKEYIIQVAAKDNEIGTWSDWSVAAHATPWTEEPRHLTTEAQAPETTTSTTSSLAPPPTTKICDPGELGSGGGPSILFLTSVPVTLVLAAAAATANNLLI
UniProt Q00560: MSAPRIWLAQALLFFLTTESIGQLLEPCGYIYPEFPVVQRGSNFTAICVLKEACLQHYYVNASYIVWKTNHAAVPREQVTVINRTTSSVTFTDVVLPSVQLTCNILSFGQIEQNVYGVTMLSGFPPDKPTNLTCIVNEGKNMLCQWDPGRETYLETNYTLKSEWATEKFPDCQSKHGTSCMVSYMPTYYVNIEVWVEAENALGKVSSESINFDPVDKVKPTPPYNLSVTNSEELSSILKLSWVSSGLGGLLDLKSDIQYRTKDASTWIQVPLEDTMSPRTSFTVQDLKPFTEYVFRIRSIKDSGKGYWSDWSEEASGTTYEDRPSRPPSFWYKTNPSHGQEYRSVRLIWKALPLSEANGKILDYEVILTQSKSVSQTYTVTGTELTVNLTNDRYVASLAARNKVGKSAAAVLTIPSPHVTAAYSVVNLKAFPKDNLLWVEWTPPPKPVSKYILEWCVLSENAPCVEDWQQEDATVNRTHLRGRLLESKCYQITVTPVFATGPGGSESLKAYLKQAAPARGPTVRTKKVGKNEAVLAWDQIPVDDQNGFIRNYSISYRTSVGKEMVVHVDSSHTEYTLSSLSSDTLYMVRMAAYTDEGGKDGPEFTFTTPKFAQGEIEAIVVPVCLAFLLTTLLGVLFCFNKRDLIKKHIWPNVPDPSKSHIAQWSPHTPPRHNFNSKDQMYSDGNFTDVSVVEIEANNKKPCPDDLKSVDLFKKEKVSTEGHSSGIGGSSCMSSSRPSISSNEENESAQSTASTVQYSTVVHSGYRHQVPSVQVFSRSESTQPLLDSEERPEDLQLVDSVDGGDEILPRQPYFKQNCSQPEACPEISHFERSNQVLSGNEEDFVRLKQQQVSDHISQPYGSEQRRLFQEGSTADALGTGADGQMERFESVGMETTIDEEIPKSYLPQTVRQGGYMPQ
UniProt P42703: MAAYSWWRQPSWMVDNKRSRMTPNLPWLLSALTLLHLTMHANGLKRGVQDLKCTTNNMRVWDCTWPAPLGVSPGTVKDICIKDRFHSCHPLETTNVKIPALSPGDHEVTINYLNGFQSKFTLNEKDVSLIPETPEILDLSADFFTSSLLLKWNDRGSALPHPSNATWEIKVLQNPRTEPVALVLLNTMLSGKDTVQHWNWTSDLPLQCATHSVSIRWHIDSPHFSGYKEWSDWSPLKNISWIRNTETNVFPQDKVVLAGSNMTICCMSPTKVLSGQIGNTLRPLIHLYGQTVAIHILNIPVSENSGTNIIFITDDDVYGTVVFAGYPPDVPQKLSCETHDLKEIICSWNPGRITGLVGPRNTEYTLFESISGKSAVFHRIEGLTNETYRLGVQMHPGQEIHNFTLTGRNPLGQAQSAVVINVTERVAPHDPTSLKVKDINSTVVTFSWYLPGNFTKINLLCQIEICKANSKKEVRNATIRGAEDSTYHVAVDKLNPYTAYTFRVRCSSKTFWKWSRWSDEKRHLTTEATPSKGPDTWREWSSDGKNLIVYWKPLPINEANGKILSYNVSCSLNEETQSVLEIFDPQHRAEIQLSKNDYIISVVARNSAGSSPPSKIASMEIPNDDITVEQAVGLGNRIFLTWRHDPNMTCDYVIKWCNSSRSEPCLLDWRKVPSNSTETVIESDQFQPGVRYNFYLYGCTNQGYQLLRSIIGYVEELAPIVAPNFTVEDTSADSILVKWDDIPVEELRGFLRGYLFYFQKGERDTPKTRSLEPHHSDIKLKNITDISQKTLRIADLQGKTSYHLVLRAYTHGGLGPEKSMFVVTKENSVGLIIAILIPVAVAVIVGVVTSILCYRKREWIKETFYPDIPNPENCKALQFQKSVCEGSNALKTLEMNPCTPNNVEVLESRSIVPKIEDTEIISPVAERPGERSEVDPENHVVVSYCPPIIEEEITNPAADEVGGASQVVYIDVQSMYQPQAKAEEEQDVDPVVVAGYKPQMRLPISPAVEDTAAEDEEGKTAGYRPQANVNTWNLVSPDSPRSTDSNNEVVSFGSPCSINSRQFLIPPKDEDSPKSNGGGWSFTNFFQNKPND

How the values were obtained:
[1] = biological target: human serum ApoE3 (human (endogenous in serum)) (UniProt P02649); assay: co-IP; mouse or human serum diluted 1:20 in PBS, mixed with biotinylated CLCF1 of the same species and anti-ApoE IgG, 16 h at 4 °C; anti-Ig beads; CLCF1 detected with HRP-streptavidin; only the binder purified
[2] = biological target: human serum ApoE3 (human (endogenous in serum)) (UniProt P02649); assay: SEC; 50 ul human, WT mouse or ApoE−/− mouse serum mixed with 1 ug biotinylated human or mouse CLCF1; FPLC on Superose 6 HR 10/30, 40 fractions analysed by Western blot for ApoE and with HRP-streptavidin for CLCF1; only the binder purified
[3] = biological target: CNTFR on 3T3-L1 mouse pre-adipocytes (mouse (endogenous in 3T3-L1)) (UniProt O88507+Q00560+P42703); assay: flow cytometry on cells; cells 1 h on ice in PBS 0.1% BSA with species-matched biotinylated CLCF1 (1 ug/ml) alone or with ApoE or HDL, LDL, VLDL (100 ug/ml); PE-streptavidin; only the binder purified
[4] = biological target: tripartite CNTFR (CNTFRα, gp130 and LIFRβ) on Ba/F3 transfectants (not stated (human or mouse cDNA cloned)) (UniProt O88507+Q00560+P42703); assay: as above
[5] = biological target: T1, mouse serum ApoE (mouse (endogenous in serum)) (UniProt P08226); assay: co-IP; mouse or human serum diluted 1:20 in PBS, mixed with biotinylated CLCF1 of the same species and anti-ApoE IgG, 16 h at 4 °C; anti-Ig beads; CLCF1 detected with HRP-streptavidin; only the binder purified
T1 sequence: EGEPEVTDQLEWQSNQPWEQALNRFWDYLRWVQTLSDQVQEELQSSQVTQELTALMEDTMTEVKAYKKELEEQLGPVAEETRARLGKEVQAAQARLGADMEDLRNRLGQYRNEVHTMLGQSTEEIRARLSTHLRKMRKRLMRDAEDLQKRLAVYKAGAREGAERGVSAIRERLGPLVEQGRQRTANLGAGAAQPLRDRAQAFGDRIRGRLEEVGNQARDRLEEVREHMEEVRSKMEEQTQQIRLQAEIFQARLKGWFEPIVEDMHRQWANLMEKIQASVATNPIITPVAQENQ

[6] = biological target: T1, mouse serum ApoE (mouse (endogenous in serum)); assay: SEC; 50 ul human, WT mouse or ApoE−/− mouse serum mixed with 1 ug biotinylated human or mouse CLCF1; FPLC on Superose 6 HR 10/30, 40 fractions analysed by Western blot for ApoE and with HRP-streptavidin for CLCF1; only the binder purified
[7] = biological target: ApoE3 secreted by Flp-In HEK-293 transfectants (human) (UniProt P02649); assay: co-IP; 20x concentrated serum-free culture medium of Flp-In HEK-293 stable transfectants co-expressing CLCF1, CRLF1 and ApoE2, 3 or 4; rat anti-ApoE mAb and anti-rat Ig agarose; glycine pH 2.5 eluates analysed by Western blot

binding [1]: binds | binding [2]: binds
B1: biotinylated human CLCF1 (cardiotrophin-like cytokine factor 1) (ligand, UniProt Q9UBD9 28-225, looked up)
chain: LNRTGDPGPGPSIQKTYDLTRYLEHQLRSLAGTYLNYLGPPFNEPDFNPPRLGAETLPRATVDLEVWRSLNDKLRLTQNYEAYSHLLCYLRGLNRQAATAELRRSLAHFCTSLQGLLGSIAGVMAALGYPLPQPLPGTEPTWTPGPAHSDFLQKMDDFWLLKELQTWLWRSAKDFNRLKKKMQPPAAAVTLHLGAHGF
modifications: biotin on the Avitag (BirA biotin-ligase)
notes: Cardiotrophin-like cytokine factor 1 (CLCF1), human, mature protein, codon optimized synthetic cDNA in pET24d; also called biotinylated hCLCF1; hCLC biot

binding [3]: binds | binding [4]: binds | binding [5]: binds | binding [6]: binds
B2: biotinylated mouse CLCF1 (ligand, UniProt Q9QZM3 28-225)
chain: B1 chain with D63N, K73R, A126T, T141A, T143A, A188S, G194E
modifications: biotin on the Avitag (BirA biotin-ligase)

binding [7]: binds
B3: human CLCF1 secreted by Flp-In HEK-293 transfectants (co-expressed with CRLF1) (ligand, UniProt Q9UBD9 28-225)
chain: B1 chain
